Results as given in PubChem BioAssay AID540276 (National Center for Advancing Translational Sciences (NCATS), 2011).
Where “and” joins values, the source holds several entries; their conditions need not be identical. Identical values can stand only once. Among all 300,000 compounds or so, about 5,400 (1.8%) were called active. The shares of active, inactive and inconclusive entries below differ from those in the screen. The call rests on the fitted dose curve; tested in HEK293 cells. Potencies beside an inconclusive call are fits to weak or partial responses and may not hold up.

test: qHTS for inhibitors of binding or entry into cells for Marburg Virus; conditions: Marburg virus pseudotyped entry inhibition, cell reporter; activity change, negative = inhibition: at 37.8 µM (top of the series) unless noted
On the % scale 0 is the no-effect control and ±100 the full control effect; potency means the concentration at half of the fitted maximal effect.

Row | SMILES | Potency | activity change, negative = inhibition
1 | S=C(NCc1ccc2c(c1)OCO2)Nc1ccc2nsnc2c1 | inactive | 
2 | Cc1scc(C(=O)N/N=C/c2ccsc2)c1C | inconclusive: 1.41 µM [activator, partial curve, poor fit] | 
3 | Nc1ccc2oc(-c3cccs3)nc2c1 | inactive | 
4 | CN(C)c1ccc(C(=O)N/N=C/c2cc(Br)cc(Br)c2O)cc1 | inconclusive: 7.08 µM [inhibitor, partial curve, poor fit] | 
5 | CCC(=O)N1CCN(c2ccc(NC(=O)c3ccc(-c4ccccc4)cc3)cc2)CC1 | inactive | 
6 | C=CCn1c(N)c(C(=O)Nc2ccc(C)cc2)sc1=S | inactive | 
7 | CC(=O)C1=C(C)NC(SCC(=O)c2ccccc2)=C(C#N)C1c1ccco1 (stereo not given) | inactive | 
8 | COCCNC(=O)CN(C(=O)Cn1nnc2ccccc21)c1ccc(C)c(F)c1 | inconclusive: 1.16 µM [inhibitor, single point] | 
9 | COc1cccc(S(=O)(=O)Nc2ccc3sc(C)nc3c2)c1 | inconclusive: 1.64 µM [inhibitor, full curve, poor fit] | 
10 | CC/C(=N/NC(=O)c1ccc(Br)o1)c1ccc(Cl)cc1 | inactive | 
11 | O=C(COC(=O)[C@@H]1CCCN1C(=O)c1cccs1)NCCc1ccccc1 | inactive | 
12 | CSC1CCCCC1(O)CSc1nc2c(cc1C#N)CCCC2 (stereo not given) | inactive | 
13 | O=c1c2ccccc2[se]n1-c1ccccc1 | active: 10 µM and active: 18.3 µM | 
14 | COc1ccc(CN(CC(=O)NCc2ccco2)C(=O)CCC(=O)Nc2nccs2)cc1 | inconclusive: 35.5 µM [inhibitor, partial curve, poor fit] | 
15 | Cc1ccc(SCc2noc(-c3c(C)noc3C)n2)cc1 | inconclusive: 3.55 µM [activator, partial curve, poor fit] | 
16 | CN(C)CCn1c2c(c(SCC(=O)Nc3cccc4ccccc34)nc1=O)CCC2 | inconclusive: 25.1 µM [inhibitor, single point] | 
17 | C/C=C/C1=Cc2ccccc2C(C(C(=O)OC)C(=O)OC)N1C(=O)OC (stereo not given) | inconclusive: 1.33 µM [inhibitor, partial curve, poor fit] | 
18 | COCCn1c(=N)c(C(=O)NCC2CCCO2)cc2c(=O)n3ccccc3nc21 (stereo not given) | inactive | 
19 | CCOc1ccc(CCNC(=O)CSc2nnnn2-c2ccccc2Cl)cc1OCC | inactive | 
20 | CCC(=O)Nc1ccc(C(=O)N/N=C/c2cc(Br)c(OC)cc2OC)cc1 | inconclusive: 0.447 µM [activator, partial curve, poor fit] | 
21 | COc1ccc(OCCCC(=O)OC(C)C(=O)Nc2cccc(C(C)=O)c2)cc1 (stereo not given) | inactive | 
22 | COc1ccc(NC(=O)COC(=O)c2cc(SC)ccc2Cl)c(OC)c1 | inconclusive: 1.26 µM [inhibitor, single point] | 
23 | Cc1sc(NC(=O)CSC2=NCCS2)nc1-c1ccccc1 | inconclusive: 35.5 µM [inhibitor, single point] | 
24 | COc1cccc(CNc2ncnc3cc(Cl)ccc23)c1 | inconclusive: 0.164 µM [inhibitor, full curve, poor fit] | 
25 | Cc1ccc(S(=O)(=O)N2CCC(NC(=O)c3cccc(F)c3)CC2)cc1 | inactive | 

Row | SMILES | Potency | activity change, negative = inhibition
26 | COc1ccccc1CCNC1CCCC(C)C1 (stereo not given) | inconclusive: 4.47 µM [inhibitor, partial curve, poor fit] | 
27 | COc1cc(C(=O)Nc2ccccc2OCc2cc(=O)n3c(C)csc3n2)cc(OC)c1OC | inactive | 
28 | CCN(CC)c1ccc(C(=O)Nc2cccc(F)c2)cc1 | inconclusive: 35.5 µM [inhibitor, single point] | 
29 | COc1cc(OC)cc(C(=O)N[C@H](C(=O)OCn2nnc3ccccc3c2=O)C(C)C)c1 | inconclusive: 20 µM [inhibitor, single point] | 
30 | Cc1ccc(Cl)cc1N1CCN(S(=O)(=O)c2c(C)[nH]c(=O)[nH]c2=O)CC1 | inconclusive: 5.8 µM [inhibitor, full curve, poor fit] | 
31 | COC(=O)c1cccc(NC(=O)CCc2cc(OC)c(OC)c(OC)c2)c1 | inconclusive: 18.4 µM [inhibitor, single point] | 
32 | COc1ccccc1-c1ccc(SCC(=O)NC2CCCCC2)nn1 | inactive | 
33 | Cc1c(O)ccc(-c2n[nH]c(C(=O)O)c2-c2nc3ccccc3s2)c1O | inactive | 
34 | C#CCSc1nccc(-c2nn(-c3ccc(C)cc3)ccc2=O)n1 | inconclusive: 12.6 µM [inhibitor, single point] | 
35 | CC1(C)CC(=O)c2sc(NC(=O)c3cccs3)nc2C1 | inconclusive: 18.3 µM [inhibitor, partial curve] | 
36 | Cc1ccc(C)c(NC(=O)CN(C)C(=O)c2oc3c(Cl)cccc3c2C)c1 | inconclusive: 15.8 µM [inhibitor, single point] | 
37 | COc1nc(NCCO)nc(Nc2ccc([N+](=O)[O-])cc2)n1 | inconclusive: 1.16 µM [inhibitor, single point] | 
38 | CCOC(=O)c1c(NC(=O)c2cc(=O)c3cc(Cl)ccc3o2)sc(C)c1C | inactive | 
39 | O=C(COc1ncnc2ccccc12)N1CCN(c2ccccc2)CC1 | inactive | 
40 | COc1ccc(-c2cc(C(F)(F)F)nc(S(C)(=O)=O)n2)cc1OC | inconclusive: 11.6 µM [inhibitor, partial curve, poor fit] | 
41 | COc1ccc2c(c1)CCCC(Br)C2=O (stereo not given) | inconclusive: 0.199 µM [activator, full curve, poor fit] | 
42 | C/C(=N/N1CCN(c2ccccc2)CC1)c1cccc([N+](=O)[O-])c1 | inconclusive: 35.5 µM [activator, single point] | 
43 | COc1ccc(N2C(=O)C(CC(=O)Nc3ccc(Cl)cc3)N(Cc3ccc4c(c3)OCO4)C2=O)cc1 (stereo not given) | inactive | 
44 | Cc1ccc2nc(-c3ccccn3)cc(C(=O)NC(C)C(C)(C)C)c2c1 (stereo not given) |  | inconclusive: 1.34% [activator] [at 46.1 µM]
45 | S=C(NCc1ccc2c(c1)OCO2)Nc1ccc(-c2nc3ccccc3[nH]2)cc1 | inconclusive: 2.59 µM [activator, single point] | 
46 | O=C(c1ccco1)N1CCN(S(=O)(=O)c2ccc(Br)s2)CC1 | inactive | 
47 | COc1ccc2[nH]c3c(=O)n(N)c(C)nc3c2c1 | inactive | 
48 | CC(O)(C#CCN1CCCCC1)c1ccccc1 (stereo not given) | inactive | 
49 | NC(=S)NN=C1C2CC3CC(C2)CC1C3 | inactive | 
50 | Cc1ccc(NC(=O)c2ccc(CSc3nnc(C)s3)cc2)cc1 | inconclusive: 15.8 µM [inhibitor, single point] | 

Row | SMILES | Potency | activity change, negative = inhibition
51 | Cc1ccccc1OCCOc1cccc(/C=N/NC(=O)Cc2nnc(N)s2)c1 | inconclusive: 14.1 µM [inhibitor, single point] | 
52 | Cc1ccc(Nc2ccc(C(=O)O)cc2[N+](=O)[O-])cc1 | inconclusive: 0.891 µM [inhibitor, single point] | 
53 | CSCCC(NS(=O)(=O)c1ccccc1F)C(=O)N1CC=C(c2ccccc2)CC1 (stereo not given) | inconclusive: 20 µM [activator, partial curve, poor fit] | 
54 | Cc1ccccc1Nc1nc(N)nc(CSc2nncn2C)n1 | inconclusive: 35.5 µM [activator, single point] | 
55 | O=C(CSc1nnc(-c2cc(-c3cccs3)nc3ccccc23)o1)NC1CCCCC1 | inactive | 
56 | CCOC(=O)c1cc(-c2cccc([N+](=O)[O-])c2)n[nH]1 | inactive | 
57 | C=CCNc1nc(Cl)nc(NCc2ccco2)n1 | inactive | 
58 | COc1ccc(C(=O)Nc2cc3c(cc2Cl)OCCCO3)cc1 | inactive | 
59 | O=c1[nH]ncc(NCCCO)c1Cl | inactive | 
60 | COC(=O)C1=C(C(=O)OC)[C@@H]2N(C)c3ccc(OC)cc3[C@@]23C[C@@H](C(=O)OC)N(C(=O)NCCBr)C3=N1 | inconclusive: 0.299 µM [inhibitor, partial curve, poor fit] | 
61 | Cc1ccccc1N1C(=O)C2C3C=CC(CC3)C2C1=O (stereo not given) | inactive | 
62 | Fc1ccc(F)c(Nc2c3c(nc4ccc(Cl)cc24)CCC3)c1 | inconclusive: 1.58 µM [inhibitor, partial curve, poor fit] | 
63 | Cn1c(SCc2ccccc2)nc(C(F)(F)F)cc1=O | inconclusive: 11.2 µM [inhibitor, partial curve, poor fit] | 
64 | CCC1CCCCN1S(=O)(=O)c1ccccc1[N+](=O)[O-] (stereo not given) | inconclusive: 10 µM [inhibitor, partial curve, poor fit] | 
65 | O=C(N/N=C/c1ccoc1)c1ccc([N+](=O)[O-])cc1 | inactive | 
66 | COc1ccc2nc(NC(=O)C3CCCO3)sc2c1 (stereo not given) | inconclusive: 0.562 µM [activator, full curve, poor fit] | 
67 | C=CCOC(=O)C1=C(C)Nc2ncnn2C1c1cccs1 (stereo not given) | inactive | 
68 | COc1c(C)cc(Br)cc1C(=O)Nc1cccc(NC(=O)c2ccco2)c1 | inconclusive: 10 µM [inhibitor, single point] | 
69 | OC(CNCc1ccccc1)COCc1ccc(Cl)cc1 (stereo not given) | inconclusive: 35.5 µM [inhibitor, single point] | 
70 | CCC=C1C(=O)[C@]2(C(=O)c3ccccc3)C[C@H]3CCC(CCC)(C2=O)[C@@]13OC | inconclusive: 6.68 µM [inhibitor, single point] | 
71 | CC(/C=N\NC(=O)CN1CCN(S(=O)(=O)c2ccc(C)cc2)CC1)=C\c1ccccc1 | inconclusive: 12.6 µM [inhibitor, partial curve, poor fit] | 
72 | CCOc1cc(/C=C2/SC(=S)NC2=O)ccc1OC(=O)c1ccco1 | inactive | 
73 | O=C(Nc1cccn(Cc2c(Cl)cccc2Cl)c1=O)C1CC1 | inactive | 
74 | CCOc1ccc(-c2nnn(CC(=O)c3ccc4c(c3)OCCO4)n2)cc1OCC | inactive | 
75 | CCOC(=O)c1c(NC(=S)NC)sc2c1CC(C)(C)SC2 | inactive | 
